# Laboratory results as given in PubChem BioAssay AID1671190 (National Center for Advancing Translational Sciences (NCATS), 2021).
# By UniProt entry, the sequences of proteins in these tests, tags left out.
# UniProt P18054, whole entry, looked up: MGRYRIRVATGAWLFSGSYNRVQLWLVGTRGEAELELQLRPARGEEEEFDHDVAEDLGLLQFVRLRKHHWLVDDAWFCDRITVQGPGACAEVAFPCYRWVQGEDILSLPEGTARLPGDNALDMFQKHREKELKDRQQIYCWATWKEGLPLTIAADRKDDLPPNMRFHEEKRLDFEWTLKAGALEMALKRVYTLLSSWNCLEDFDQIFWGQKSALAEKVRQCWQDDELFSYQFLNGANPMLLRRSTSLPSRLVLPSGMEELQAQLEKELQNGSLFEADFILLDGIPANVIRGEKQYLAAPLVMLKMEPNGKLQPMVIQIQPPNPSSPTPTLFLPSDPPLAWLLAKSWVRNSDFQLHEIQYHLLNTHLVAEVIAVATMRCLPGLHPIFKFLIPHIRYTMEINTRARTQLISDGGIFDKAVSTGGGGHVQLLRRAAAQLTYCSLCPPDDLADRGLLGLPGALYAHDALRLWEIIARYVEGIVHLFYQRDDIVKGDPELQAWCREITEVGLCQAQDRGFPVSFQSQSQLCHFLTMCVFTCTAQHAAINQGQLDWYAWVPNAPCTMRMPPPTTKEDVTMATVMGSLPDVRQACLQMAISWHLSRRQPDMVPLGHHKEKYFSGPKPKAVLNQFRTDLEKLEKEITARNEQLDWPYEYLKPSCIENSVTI
# Among all 580,000 compounds or so, about 6,100 (1.1%) were called active. Inconclusive results, whose numbers are uncertain, are shown with a selection of clear calls. Calls follow the shape of the dose curve; as a rule, active = well fitted inhibition curve with a large enough effect; inconclusive = small, poorly fitted or top-dose-only effect, or another doubt; inactive = no such curve, though single readings can be large or run the other way. Where the call is inconclusive, the potency comes from a doubtful curve fit.
# Molecular target: Polyunsaturated fatty acid lipoxygenase ALOX12 (Homo sapiens) (UniProt P18054)
# Test: Primary qHTS assay for inhibitors of human arachidonate 12S-lipoxygenase (ALOX12): Round 2
# Details: purified 12hLO, xylenol orange hydroperoxide absorbance; activity change, negative = inhibition: at 108 µM (top of the series) unless noted
# Outline: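 Purified human 12hLO (150 nM final) in 25 mM Hepes, 0.01% Triton X-100, pH 7.0 was preincubated 15 min at room temperature with compound. Then 40 uM arachidonic acid was added, 30 min. Hydroperoxide was read by Fe-XO absorbance ratio 573/405 nm.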
# % is scaled to controls: 0 for no effect and ±100 for the full control effect; potency is read from the fitted curve at half-maximal effect.
SMILES,Potency,"activity change, negative = inhibition"
CC(C)CCn1c(SCC(=O)c2ccccc2)nc2c1c(=O)n(C)c(=O)n2C,active: 17.8 µM,
COc1cc2c(cc1OC)C(c1cc(Br)ccc1F)N(C(=O)CCl)CC2 (configuration not stated),active: 15.8 µM,
O=C1Cc2c(-c3ccc(CO)cc3)n[nH]c2CN1CC1CCOCC1,"inconclusive: 17.8 µM [inhibitor, full curve, poor fit]",
COC(=O)C1=C(C)NC(=O)CC1C(=O)Nc1cc(Cl)cc(Cl)c1 (configuration not stated),"inconclusive: 14.1 µM [inhibitor, full curve, poor fit]",
Cc1cccc(OCc2nnc(SCCC(=O)O)n2-c2ccccc2)c1,,inactive: 0%
CCCOC(=O)c1ccccc1OC(=O)c1ccc(Cl)cc1Cl,"inconclusive: 0.1 µM [inhibitor, full curve, poor fit]",
COc1ccc(CCn2ccc(O)c(Cc3ccc(Cl)cc3Cl)c2=O)cc1OC,"inconclusive: 56.2 µM [inhibitor, partial curve, poor fit]",
O=C(NCC(=O)N1CCN(c2ccccc2O)CC1)c1ccc2c(c1)OCO2,active: 31.6 µM,
Cc1ccc(-c2n[nH]c(=S)n2-c2ccccc2)cc1,,inactive: -47.4%
Cc1ccc(N2CC(C(=O)Nc3ccc4c(c3)OCCO4)CC2=O)cc1 (configuration not stated),,inactive: -33.2%
N#Cc1cnc2ccccc2c1Nc1cccc(C(F)(F)F)c1,"inconclusive: 100 µM [inhibitor, partial curve, poor fit]",
CC(C)N1CCN(C(=O)C2CCN(c3cnn(CC4CC4)c(=O)c3)C2)CC1 (configuration not stated),,inactive: 16.5%
CC1CCCC(C)N1C(=O)COC(=O)c1ccc2c(c1)OCO2 (configuration not stated),,inactive: 4.72%
CCN(C[C@H]1N[C@@](C)(C(=O)OC)[C@H]2C(=O)N(Cc3ccccc3)C(=O)[C@@H]12)C(=O)c1ccc(C)cc1,"inconclusive: 89.1 µM [inhibitor, single point]",
CC1(C(=O)NS(=O)(=O)c2ccc3c(c2)CCO3)CCN1C(=O)CCc1ccc(Cl)cc1Cl (configuration not stated),"inconclusive: 35.5 µM [inhibitor, partial curve, poor fit]",
O=S(=O)(NCCc1csc2nc(-c3ccccc3)nn12)c1ccc(Oc2ccccc2)cc1,,inactive: -18.7%
CC(C)c1noc(C2CCCN(S(=O)(=O)c3cccs3)CCC(=O)NCC2)n1 (configuration not stated),"inconclusive: 50.1 µM [inhibitor, partial curve, poor fit]",
CC(C)CC(c1nnnn1Cc1ccccc1)N1CCC(C(N)=O)CC1 (configuration not stated),"inconclusive: 79.4 µM [inhibitor, partial curve, poor fit]",
CCOC(=O)c1c(NC(=O)c2cc3n(n2)C(C(F)(F)F)CC(c2cccs2)N3)sc(C)c1C (configuration not stated),,inactive: 1.7%
CNc1[nH]c(=O)[nH]c(=O)c1N=Nc1cc(Cl)ccc1Cl,"inconclusive: 50.1 µM [inhibitor, partial curve, poor fit]",
COc1cccc(Cn2c(=O)cnc3cnc(OCc4ccccc4)nc32)c1,"inconclusive: 5.62 µM [inhibitor, full curve, poor fit]",

SMILES,Potency,"activity change, negative = inhibition"
Cn1cc(Br)c(NC(=O)/C=C/C(=O)O)n1,"inconclusive: 50.1 µM [inhibitor, partial curve, poor fit]",
COC(=O)c1cccc(NC(=O)NCc2cccn2Cc2ccccc2)c1,"inconclusive: 31.6 µM [inhibitor, single point]",
CC1=NS(=O)(=O)N(Cc2ccc(F)c(F)c2)C=C1C(=O)O,,inactive: 20.3%
C=CCn1c(SCCc2ccccc2)nc2c1c(=O)n(C)c(=O)n2C,,inactive: 10.7%
CC(C)(C)C1(O)C(=O)Nc2ccccc21 (configuration not stated),"inconclusive: 39.8 µM [inhibitor, partial curve, poor fit]",
CN(C)CCn1c2c(c(SCC(=O)Nc3cccc(C(F)(F)F)c3)nc1=O)CCCC2,,inactive: -15.4%
CNc1nc(-c2[nH]c(C)c(C(=O)OC)c2C)cs1,active: 20 µM,
CCOC(=O)c1cc2c(=O)n3ccccc3nc2n(Cc2ccco2)c1=NC(=O)c1cccc(Br)c1,"inconclusive: 141 µM [inhibitor, partial curve, poor fit]",
Cc1ccc(-c2cc(C(=O)NCCN(C)C)c3cc(Br)ccc3n2)o1,"inconclusive: 56.2 µM [inhibitor, partial curve, poor fit]",
CC(C)c1ccc(S(=O)(=O)Nc2ccc(N3CCOCC3)cc2)cc1,"inconclusive: 100 µM [inhibitor, single point]",
COc1ccc(OC)c(NC(=O)Cn2cc(C#N)c3cc(Br)ccc32)c1,"inconclusive: 56.2 µM [inhibitor, partial curve, poor fit]",
CCN(CC)C(=O)c1ccc(C(CCOC(=O)Oc2ccccc2)c2ccc(OC)cc2)cc1 (configuration not stated),"inconclusive: 3.55 µM [inhibitor, full curve, poor fit]",
COc1ccc2c(C)c(CC(=O)Nc3cccc(Cl)c3)c(=O)oc2c1,,inactive: 5.23%
CCc1ccccc1NC(=O)CN(C)Cc1c(O)ccc2ccccc12,"inconclusive: 5.01 µM [inhibitor, full curve, poor fit]",
COc1ccc(Cl)cc1NC(=O)Cn1nnc2sc(-c3ccccc3)cc2c1=O,"inconclusive: 112 µM [inhibitor, partial curve, poor fit]",
C=CC1=C2C=C(C3CC3)N(C3CC3)C=C2C(=O)C(C)(OC(=O)c2ccco2)C1=O (configuration not stated),"inconclusive: 56.2 µM [inhibitor, partial curve, poor fit]",
Oc1ccc(-c2cn3c(n2)SCC3)cc1O,"inconclusive: 70.8 µM [inhibitor, partial curve, poor fit]",
S=C(Nc1ccc(Nc2ccccc2)cc1)NC1CCCCCC1,active: 44.7 µM,
O=C(O)CNS(=O)(=O)c1ccc(Cl)cc1,"inconclusive: 22.4 µM [inhibitor, partial curve, poor fit]",
O=C1NC(C(=O)NCc2ccc(F)cc2)Cn2cccc21 (configuration not stated),,inactive: 8.02%
CC(C)=CCC[C@](C)(O)C1CC[C@]2(C)C1C(O)CC1[C@@]3(C)CCC(O)C(C)(C)C3C(O[C@@H]3OC(CO)C(O)C(O)C3O[C@@H]3OC(C)C(O)C(O)C3O)C[C@]12C (some centres not stated),"inconclusive: 31.6 µM [inhibitor, partial curve, poor fit]",

# Looked up above.
# CCOC(=O)c1cc2c(=O)n3ccccc3nc2n(Cc2ccco2)c1=NC(=O)c1cccc(Br)c1 – Potency: inconclusive: 141 µM [inhibitor, partial curve, poor fit]
# COC(=O)c1cccc(NC(=O)NCc2cccn2Cc2ccccc2)c1 – Potency: inconclusive: 31.6 µM [inhibitor, single point]
# CCOC(=O)c1c(NC(=O)c2cc3n(n2)C(C(F)(F)F)CC(c2cccs2)N3)sc(C)c1C (configuration not stated) – activity change, negative = inhibition: inactive: 1.7%
